# Data as given in patent USRE49816E1, “Dipeptides as inhibitors of human immunoproteasomes” (CORNELL UNIVERSITY, priority 2014, dated 2024).
# Sequences of proteins named here, by UniProt entry; tags and fusion partners are left off. A change or cut given only in a name is not applied to a line headed by its entry.
# UniProt P20618: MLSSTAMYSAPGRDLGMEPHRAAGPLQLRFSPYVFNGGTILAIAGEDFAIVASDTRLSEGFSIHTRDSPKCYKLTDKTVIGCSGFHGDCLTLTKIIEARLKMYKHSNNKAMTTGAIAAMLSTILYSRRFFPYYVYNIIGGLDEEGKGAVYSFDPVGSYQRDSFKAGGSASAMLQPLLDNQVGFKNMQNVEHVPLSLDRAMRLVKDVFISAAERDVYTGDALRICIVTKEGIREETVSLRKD
# UniProt P28062: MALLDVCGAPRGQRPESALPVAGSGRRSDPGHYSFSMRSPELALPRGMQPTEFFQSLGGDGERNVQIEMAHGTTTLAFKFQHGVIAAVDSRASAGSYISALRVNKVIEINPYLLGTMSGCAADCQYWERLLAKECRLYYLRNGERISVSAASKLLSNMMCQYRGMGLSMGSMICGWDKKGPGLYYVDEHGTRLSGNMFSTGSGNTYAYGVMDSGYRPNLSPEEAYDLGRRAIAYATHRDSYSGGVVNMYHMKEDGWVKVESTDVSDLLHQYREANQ
# At least one compound was matched to its structure with a doubt left.
# Target: hu i-20S β5i (Homo sapiens, UniProt P20618+P28062)
# Assay: Kinetic parameters of oxathiazolones vs hu i-20S β5i
# Format: biochemical
# Conditions: kinact/KI β5i over β5c
row,SMILES,Ratio
1,O=c1oc(-c2ccccn2)ns1 [HT1043],645
2,Cc1sc(-c2nsc(=O)o2)cc1[N+](=O)[O-] [HT1171],100
